From the supplement of paper PMC10849652
The other results are listed elsewhere or left out.

Chains of the proteins cited; added tags and fusions are not shown. Lines headed by an entry give the natural chain unless they say otherwise; changes in a name come on top.
UniProt Q96B49: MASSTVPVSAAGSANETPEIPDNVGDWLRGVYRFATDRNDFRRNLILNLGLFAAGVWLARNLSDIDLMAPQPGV
UniProt O94886: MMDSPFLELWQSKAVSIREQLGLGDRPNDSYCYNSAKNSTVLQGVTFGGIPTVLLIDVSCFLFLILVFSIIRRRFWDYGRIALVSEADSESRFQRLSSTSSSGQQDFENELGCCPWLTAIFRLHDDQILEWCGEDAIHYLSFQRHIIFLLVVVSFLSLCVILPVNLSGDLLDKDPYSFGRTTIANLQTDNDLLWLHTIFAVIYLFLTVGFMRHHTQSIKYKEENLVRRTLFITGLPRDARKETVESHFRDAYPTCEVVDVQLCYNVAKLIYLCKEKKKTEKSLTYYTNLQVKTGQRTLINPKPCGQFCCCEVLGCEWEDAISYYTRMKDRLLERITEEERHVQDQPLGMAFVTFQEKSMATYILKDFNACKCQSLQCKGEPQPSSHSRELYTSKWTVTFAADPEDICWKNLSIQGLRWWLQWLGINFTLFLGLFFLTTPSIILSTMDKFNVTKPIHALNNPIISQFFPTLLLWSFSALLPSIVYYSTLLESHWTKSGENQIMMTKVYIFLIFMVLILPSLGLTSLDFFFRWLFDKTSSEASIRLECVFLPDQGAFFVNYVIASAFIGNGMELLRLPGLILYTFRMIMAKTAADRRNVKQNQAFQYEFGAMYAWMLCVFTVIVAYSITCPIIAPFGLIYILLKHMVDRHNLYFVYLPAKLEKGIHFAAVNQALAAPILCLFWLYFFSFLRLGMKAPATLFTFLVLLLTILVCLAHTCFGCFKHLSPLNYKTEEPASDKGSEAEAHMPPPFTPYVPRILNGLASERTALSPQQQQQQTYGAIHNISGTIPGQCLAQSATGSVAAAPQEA
UniProt P60174, whole entry, looked up: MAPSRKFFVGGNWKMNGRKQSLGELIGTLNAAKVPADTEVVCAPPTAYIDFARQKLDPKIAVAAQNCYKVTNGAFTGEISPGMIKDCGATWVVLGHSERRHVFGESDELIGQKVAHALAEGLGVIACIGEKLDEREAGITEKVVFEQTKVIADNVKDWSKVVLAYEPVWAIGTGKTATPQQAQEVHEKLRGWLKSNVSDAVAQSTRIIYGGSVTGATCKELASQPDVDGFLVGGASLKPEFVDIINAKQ
UniProt Q6PI78: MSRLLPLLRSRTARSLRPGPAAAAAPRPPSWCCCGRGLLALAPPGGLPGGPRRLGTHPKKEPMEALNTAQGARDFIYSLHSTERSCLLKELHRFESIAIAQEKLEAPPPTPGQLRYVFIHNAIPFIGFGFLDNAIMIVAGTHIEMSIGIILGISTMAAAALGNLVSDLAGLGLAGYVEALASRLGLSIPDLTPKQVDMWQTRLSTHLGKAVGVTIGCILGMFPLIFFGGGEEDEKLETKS
UniProt P28289: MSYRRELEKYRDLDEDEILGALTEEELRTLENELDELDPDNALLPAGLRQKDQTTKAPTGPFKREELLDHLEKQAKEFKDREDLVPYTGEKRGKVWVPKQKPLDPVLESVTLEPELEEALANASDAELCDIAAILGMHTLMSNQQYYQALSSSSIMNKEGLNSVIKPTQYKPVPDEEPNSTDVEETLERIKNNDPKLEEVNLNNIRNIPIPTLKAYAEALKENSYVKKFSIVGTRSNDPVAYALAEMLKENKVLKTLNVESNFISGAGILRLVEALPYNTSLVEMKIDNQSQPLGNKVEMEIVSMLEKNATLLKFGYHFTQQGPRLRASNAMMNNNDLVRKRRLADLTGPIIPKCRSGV
UniProt Q9BRR3: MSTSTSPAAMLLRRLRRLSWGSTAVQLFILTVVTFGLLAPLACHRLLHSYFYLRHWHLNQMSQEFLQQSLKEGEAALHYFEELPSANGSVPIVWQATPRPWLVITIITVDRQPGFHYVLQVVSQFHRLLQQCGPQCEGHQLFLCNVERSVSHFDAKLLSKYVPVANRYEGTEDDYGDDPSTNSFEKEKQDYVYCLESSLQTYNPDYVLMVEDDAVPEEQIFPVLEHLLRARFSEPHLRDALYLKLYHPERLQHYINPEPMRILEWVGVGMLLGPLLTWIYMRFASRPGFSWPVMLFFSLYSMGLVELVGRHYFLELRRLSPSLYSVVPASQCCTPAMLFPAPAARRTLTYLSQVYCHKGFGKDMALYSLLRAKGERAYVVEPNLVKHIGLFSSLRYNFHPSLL
UniProt Q9H3N1: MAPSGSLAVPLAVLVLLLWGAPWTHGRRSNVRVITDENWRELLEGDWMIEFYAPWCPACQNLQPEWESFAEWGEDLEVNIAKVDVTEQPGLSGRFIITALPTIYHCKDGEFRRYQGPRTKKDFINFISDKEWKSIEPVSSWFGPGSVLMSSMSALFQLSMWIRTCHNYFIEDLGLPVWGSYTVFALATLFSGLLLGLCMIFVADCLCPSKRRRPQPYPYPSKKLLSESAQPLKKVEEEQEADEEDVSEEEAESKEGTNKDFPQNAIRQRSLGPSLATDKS
UniProt Q9ULW0, whole entry, looked up: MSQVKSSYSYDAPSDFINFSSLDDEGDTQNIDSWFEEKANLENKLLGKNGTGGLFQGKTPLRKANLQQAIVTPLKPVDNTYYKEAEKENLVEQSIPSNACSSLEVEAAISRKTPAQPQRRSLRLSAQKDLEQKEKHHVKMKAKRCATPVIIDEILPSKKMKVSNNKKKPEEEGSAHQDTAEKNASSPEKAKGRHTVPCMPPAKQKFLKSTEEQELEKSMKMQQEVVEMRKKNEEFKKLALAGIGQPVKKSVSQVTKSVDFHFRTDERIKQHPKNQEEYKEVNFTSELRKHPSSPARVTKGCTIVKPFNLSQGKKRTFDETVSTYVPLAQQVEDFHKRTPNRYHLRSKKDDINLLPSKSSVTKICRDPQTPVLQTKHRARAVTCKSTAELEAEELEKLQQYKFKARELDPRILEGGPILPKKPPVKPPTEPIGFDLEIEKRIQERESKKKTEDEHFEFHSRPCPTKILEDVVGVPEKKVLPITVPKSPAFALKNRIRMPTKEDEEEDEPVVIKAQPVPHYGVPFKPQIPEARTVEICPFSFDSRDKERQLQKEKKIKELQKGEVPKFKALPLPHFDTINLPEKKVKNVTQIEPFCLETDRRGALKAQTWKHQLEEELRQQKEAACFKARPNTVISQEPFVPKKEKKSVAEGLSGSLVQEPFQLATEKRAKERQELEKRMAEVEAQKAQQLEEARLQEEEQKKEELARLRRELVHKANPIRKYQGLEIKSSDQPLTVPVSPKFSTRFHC
UniProt Q9H1E5: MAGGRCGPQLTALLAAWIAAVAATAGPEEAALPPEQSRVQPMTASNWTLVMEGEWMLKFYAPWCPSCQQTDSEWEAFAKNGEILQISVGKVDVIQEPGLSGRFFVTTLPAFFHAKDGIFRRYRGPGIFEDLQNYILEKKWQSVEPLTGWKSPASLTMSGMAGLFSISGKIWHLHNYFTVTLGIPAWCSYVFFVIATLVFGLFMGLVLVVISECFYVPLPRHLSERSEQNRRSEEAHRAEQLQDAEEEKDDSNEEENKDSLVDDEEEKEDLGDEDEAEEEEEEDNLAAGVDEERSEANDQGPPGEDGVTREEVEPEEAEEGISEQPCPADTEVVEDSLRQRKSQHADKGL
UniProt Q15628: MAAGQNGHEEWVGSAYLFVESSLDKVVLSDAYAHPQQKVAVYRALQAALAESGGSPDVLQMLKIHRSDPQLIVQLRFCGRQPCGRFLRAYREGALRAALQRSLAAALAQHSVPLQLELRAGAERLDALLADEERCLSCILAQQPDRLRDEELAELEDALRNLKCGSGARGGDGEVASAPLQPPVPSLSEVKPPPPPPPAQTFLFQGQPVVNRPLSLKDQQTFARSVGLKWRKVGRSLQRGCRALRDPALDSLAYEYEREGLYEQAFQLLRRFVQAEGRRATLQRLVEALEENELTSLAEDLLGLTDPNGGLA

How the values were obtained:
Assay in all cases: log2 fold change, soluble protein after heating vs DMSO (PISA); higher = thermal stabilisation; K562 lysate, 10 uM; active = over 0.2 and 3.5 SD of the protein, either way, in both replicates (recomputed)
[1] = compound: C1=CC=C(C=C1)[C@H](COC2=CC3=C(C=C2)NC(=O)N3)NC(=O)C4=CC=CN(C4=O)CC5=CC(=C(C=C5)F)F
Method in brief: (§1)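 To prepare the extract, K562 pellets were dounce-homogenised in PBS pH 7.4 with 1 mM MgCl2, giving crude material at 1 mg/mL protein. This was treated with 10 μM compound for 30 min, then heated in aliquots for 3 min over 48°C-58°C before pooling and addition of NP-40 to 0.5% at 4°C. Centrifugation at 21,000xg for 90 min left soluble protein in the supernatant, which TMTpro 16plex LC-MS/MS quantified with equalised channel sums. Results are log-two fold changes in thermal stability compared with solvent controls, from duplicates.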

[2] = compound: CC1=C(SC2=C1C(=N[C@H](C3=NN=C(N32)C)CC(=O)N)C4=CC=C(C=C4)Cl)C
Method in brief: as §1

[3] = compound: CC1=C2C(=CC=C1)N=C(N(C2=O)C3=CC=CC=C3C)CN4C=NC5=C(N=CN=C54)N
Method in brief: as §1

[4] = compound: Cc1sc2c(c1C)C(c1ccc(Cl)cc1)=N[C@@H](CC(=O)OC(C)(C)C)c1nnc(C)n1-2
Method in brief: as §1

[5] = compound: c1ccc([C@@H]2C[C@H]2NC2CCNCC2)cc1
Method in brief: as §1

Measured: log2 fold change

TOMM6 (UniProt Q96B49)
inactive: [1] -0.261 | [2] 0.026 | [3] 0.081 | [4] -0.134 | [5] 0.184

TMEM63A (UniProt O94886)
inactive: [1] -0.011 | [2] -0.04 | [3] 0.009 | [4] 0.066 | [5] 0.011

TPI1 (UniProt P60174)
inactive: [1] -0.015 | [2] -0.004 | [3] -0.038 | [4] -0.033 | [5] -0.039

TMEM65 (UniProt Q6PI78)
inactive: [1] -0.06 | [2] -0.041 | [3] 0.134 | [4] -0.129 | [5] 0.051

TMOD1 (UniProt P28289)
inactive: [1] -0.003 | [2] 0.021 | [3] 0.043 | [4] 0.017 | [5] 0.002

TMEM246 (UniProt Q9BRR3)
inactive: [1] -0.184 | [2] 0.009

TMX1 (UniProt Q9H3N1)
inactive: [1] -0.04 | [2] 0.017 | [3] 0.016 | [4] 0.033 | [5] 0.004

TPX2 (UniProt Q9ULW0)
inactive: [1] 0.04 | [2] -0.006 | [3] 0.008 | [4] -0.003 | [5] 0

TMX4 (UniProt Q9H1E5)
inactive: [1] 0.06 | [2] 0.003 | [3] -0.026 | [4] 0.021 | [5] 0.09

TRADD (UniProt Q15628)
inactive: [1] -0.051 | [2] -0.016 | [3] 0.112 | [4] 0.05 | [5] 0.033

2 successive entries from above:
TPI1 (UniProt P60174)
inactive: [1] -0.015 | [2] -0.004 | [3] -0.038 | [4] -0.033 | [5] -0.039

TMEM65 (UniProt Q6PI78)
inactive: [1] -0.06 | [2] -0.041 | [3] 0.134 | [4] -0.129 | [5] 0.051
